Results are given in words; binding and its absence hold for the method and conditions named. In cells and extracts the contact can be indirect. Here binding means that the protein was enriched with, or labelled near, the bait; the list need not be complete.
B1: Bud31 (protein, UniProt Q6PGH1 1-144)
chain: MPKVKRSRKAPPDGWELIEPTLDELDQKMREAETEPHEGKRKVESLWPIFRIHHQKTRYIFDLFYKRKAISRELYEYCIKEGYADKNLIAKWKKQGYENLCCLRCIQTRDTNFGTNCICRVPKSKLEVGRIIECTHCGCRGCSG
B2: Nanog (protein, UniProt Q80Z64 1-305)
chain: MSVGLPGPHSLPSSEEASNSGNASSMPAVFHPENYSCLQGSATEMLCTEAASPRPSSEDLPLQGSPDSSTSPKQKLSSPEADKGPEEEENKVLARKQKMRTVFSQAQLCALKDRFQKQKYLSLQQMQELSSILNLSYKQVKTWFQNQRMKCKRWQKNQWLKTSNGLIQKGSAPVEYPSIHCSYPQGYLVNASGSLSMWGSQTWTNPTWSSQTWTNPTWNNQTWTNPTWSSQAWTAQSWNGQPWNAAPLHNFGEDFLQPYVQLQQNFSASDLEVNLEATRESHAHFSTPQALELFLNYSVTPPGEI
B3: Znf280d (protein, UniProt Q68FE8 1-974)
chain: MVTTYIKSDLQLDGRQFFQPKDNLKMAELFMECEEEELEPWQKKVKEVEEDDDDEPIFVAEIASSKPAISNILNRVNPSSHSRGIKNGILNRGFTASFKPTSQRCLNSASNPVAALPVNFHPESRSSDSSVIVQPFSKPGYVTNSPRVLSNNSSELLFDLTQDTGLSHYQGGPTLSIAGLNETSFLSKRPSGSDISSVNPKKPKPSENTSGIDASSVISSEKSPSVISLQVVPSQGANCSSSQSKNGTTFPRACPKCDIHFNLLDPLKNHMTYCCPDMINNFLGLTKADNLNSANEAKTLESEKGKLIMLVNDFYYGKHEGDVLEEQKTHTTFKCFSCLKVLKNNIRFMNHMKHHLELEKQSSESWEKHTTCQHCYRQFPTPFQLQCHIESTHTPHEFSTICKICELSFETEQILLQHMKDNHKPGEMPYICQVCNYRSSLFSEVESHFRTSHENTKNLLCPFCLKVIKIATPYMHHYMKHQKKGIHRCTKCRLQFLTCKEKMDHKTQHHRTFVKPKQLEGLPPGTKVTIRASVGPLQSGSSVTPSISPSTSTLQLSPPEPDNVTAKNHVKLTTSTPNTTISDPSKANETKSNGSKSKNKSKVSNMQKKQSTLSSSNKKSKVNTALRNLRLRRGVHECIECSSEVKDFANHFPTYVHCSFCRYNTSCSKAYVNHMMSFHSNRPSKRYCIFKKHSENLRGISLVCLNCDFLTDVSGLDNMATHLSQHETHSCRVLVEQVSVCIPTSERLSEIKTEAPTKGQEPVSKETARHSRAEGEPGASHSGSKQDKVPSSEEGTGCDASVCEAAAATHCEKDVTVSDTENVSSSKNILSHDPDVGTDTMEKEEKTHHACQEMELKVDQSSESTNPTEAELSSETRQGLQLTSGDVGIDQFLRQGDEPKSVNSDASDPGSVRLEPLTPSEVLEYEATEILHDGDDPSANTSDTVSDQTGGSPGGSNPCRAETAVDLADGEERS
B4: Baz1b (protein, UniProt Q9Z277 1-1479)
chain: MAPLLGRKPFPLVKPLPGEEPLFTIPHTQEAFRTREEYEARLERYSERIWTCKSTGSSQLTHKEAWEEEQEVAELLKEEFPNWYEKLVLEMVHHNTASLEKLVDSAWLEIMTKYAVGEECDFEVGKEKMLKVKIVKIHPLEKVDEEAVEKKSDGACDSPSSDKENSSQMAQDLQKKETVVKEDEGRRESINDRARRSPRKLPTSLKKGERKWAPPKFLPHKYDVKLQNEDKIISNVPADSLIRTERPPNKEILRYFIRHNALRAGTGENAPWVVEDELVKKYSLPSKFSDFLLDPYKYMTLNPSTKRRNTGSPDRKPSKKPKRDSSSLSSPLNPKLWCHVHLEKSLNGPPLKVKNSKNSKSPEEHLEGVMKIMSPNNNKLHSFHIPKKGPAAKKPGKHSDKPLKAKGRGKGILNGQKSTGNSKSPSKCVKTPKTKMKQMTLLDMAKGTQKMTRTPRSSGGVPRSSGKPHKHLPPAALHLIAYYKENKDKEDKKSALSCVISKTARLLSNEDRARLPEELRALVQKRYELLEHKKRWASMSEEQRKEYLKKKRQELKERLREKAKERREREMLERLEKQKRFEDQELGGRNLPAFRLVDTPEGLPNTLFGDVALVVEFLSCYSGLLLPDAQYPITAVSLMEALSADKGGFLYLNRVLVILLQTLLQDEIAEDYGELGMKLSEIPLTLHSVSELVRLCLRRCDVQEDSEGSETDDNKDSTPFEDNEVQDEFLEKLETSEFFELTSEEKLRILTALCHRILMTYSVQDHMETRQQVSAELWKERLAVLKEENDKKRAEKQKRKEMEARNKENGKEENVLGKVDRKKEIVKIEQQVEVEADDMISAVKSRRLLSMQAKRKREIQERETKVRLEREAEEERMRKHKAAAEKAFQEGIAKAKLVLRRTPIGTDRNHNRYWLFSNEVPGLFIEKGWVHNSIDYRFKHHRKDHSNLPDDDYCPRSKKANLGKNASVNAHHGPALEAVETTVPKQGQNLWFLCDSQKELDELLSCLHPQGIRESQLKERLEKRYQEITHSIYLARKPNLGLKSCDGNQELLNFLRSDLIEVATRLQKGGLGYMEGTSEFEARVISLEKLKDFGECVIALQASVIKKFLQGFMAPKQKKRKLQSEDSTKSEEVDEEKKMVEEAKVASALEKWKTAIREAQTFSRMHVLLGMLDACIKWDMSAENARCKVCRKKGEDDKLILCDECNKAFHLFCLRPALYEVPDGEWQCPACQPPTARRNSRGRNYTEESTSEGSEGDESGEEEEEEEEEEEEEEDYEVAGLRLRPRKTIRGKQSVIPAARPGRPPGKKSHPARRSRPKDDPEVDDLVLQTKRISRRQSLELQKCEDILHKLVKYRFSWPFREPVTRDEAEDYYDVIEHPMDFQTIQNKCSCGNYRSVQEFLTDMKQVFANAELYNCRGSHVLSCMEKTEQCLLALLQKHLPGHPYVRRKRRKFPDRLADDEGDSDSESVGQSRGRRQKK

Chains of the proteins cited; added tags and fusions are not shown.
UniProt Q91ZW3: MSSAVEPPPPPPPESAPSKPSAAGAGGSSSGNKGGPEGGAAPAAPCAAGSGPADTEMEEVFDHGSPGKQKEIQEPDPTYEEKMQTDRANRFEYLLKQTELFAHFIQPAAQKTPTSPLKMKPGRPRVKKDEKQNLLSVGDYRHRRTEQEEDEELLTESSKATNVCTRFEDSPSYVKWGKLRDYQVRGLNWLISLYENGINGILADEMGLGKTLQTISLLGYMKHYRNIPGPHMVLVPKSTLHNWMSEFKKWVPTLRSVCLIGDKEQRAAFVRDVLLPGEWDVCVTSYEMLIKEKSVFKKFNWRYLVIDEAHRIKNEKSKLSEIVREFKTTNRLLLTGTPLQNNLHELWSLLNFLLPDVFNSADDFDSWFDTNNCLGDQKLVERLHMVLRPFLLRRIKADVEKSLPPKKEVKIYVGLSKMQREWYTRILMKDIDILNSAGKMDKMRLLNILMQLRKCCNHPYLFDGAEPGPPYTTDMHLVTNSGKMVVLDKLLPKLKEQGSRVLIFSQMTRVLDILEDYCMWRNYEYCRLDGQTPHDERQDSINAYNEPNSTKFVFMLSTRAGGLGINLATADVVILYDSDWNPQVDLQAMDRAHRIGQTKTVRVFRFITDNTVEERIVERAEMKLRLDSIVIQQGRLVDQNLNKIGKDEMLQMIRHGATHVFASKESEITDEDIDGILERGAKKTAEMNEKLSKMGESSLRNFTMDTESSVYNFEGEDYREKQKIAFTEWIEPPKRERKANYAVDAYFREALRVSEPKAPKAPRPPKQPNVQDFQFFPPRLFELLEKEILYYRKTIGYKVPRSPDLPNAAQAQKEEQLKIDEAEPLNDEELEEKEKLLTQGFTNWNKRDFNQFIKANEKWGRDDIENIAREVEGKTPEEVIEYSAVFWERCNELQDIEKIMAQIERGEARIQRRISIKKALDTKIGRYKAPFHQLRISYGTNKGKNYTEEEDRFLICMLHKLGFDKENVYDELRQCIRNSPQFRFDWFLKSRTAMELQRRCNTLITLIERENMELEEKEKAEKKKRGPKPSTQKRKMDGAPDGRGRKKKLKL
UniProt A2BH40: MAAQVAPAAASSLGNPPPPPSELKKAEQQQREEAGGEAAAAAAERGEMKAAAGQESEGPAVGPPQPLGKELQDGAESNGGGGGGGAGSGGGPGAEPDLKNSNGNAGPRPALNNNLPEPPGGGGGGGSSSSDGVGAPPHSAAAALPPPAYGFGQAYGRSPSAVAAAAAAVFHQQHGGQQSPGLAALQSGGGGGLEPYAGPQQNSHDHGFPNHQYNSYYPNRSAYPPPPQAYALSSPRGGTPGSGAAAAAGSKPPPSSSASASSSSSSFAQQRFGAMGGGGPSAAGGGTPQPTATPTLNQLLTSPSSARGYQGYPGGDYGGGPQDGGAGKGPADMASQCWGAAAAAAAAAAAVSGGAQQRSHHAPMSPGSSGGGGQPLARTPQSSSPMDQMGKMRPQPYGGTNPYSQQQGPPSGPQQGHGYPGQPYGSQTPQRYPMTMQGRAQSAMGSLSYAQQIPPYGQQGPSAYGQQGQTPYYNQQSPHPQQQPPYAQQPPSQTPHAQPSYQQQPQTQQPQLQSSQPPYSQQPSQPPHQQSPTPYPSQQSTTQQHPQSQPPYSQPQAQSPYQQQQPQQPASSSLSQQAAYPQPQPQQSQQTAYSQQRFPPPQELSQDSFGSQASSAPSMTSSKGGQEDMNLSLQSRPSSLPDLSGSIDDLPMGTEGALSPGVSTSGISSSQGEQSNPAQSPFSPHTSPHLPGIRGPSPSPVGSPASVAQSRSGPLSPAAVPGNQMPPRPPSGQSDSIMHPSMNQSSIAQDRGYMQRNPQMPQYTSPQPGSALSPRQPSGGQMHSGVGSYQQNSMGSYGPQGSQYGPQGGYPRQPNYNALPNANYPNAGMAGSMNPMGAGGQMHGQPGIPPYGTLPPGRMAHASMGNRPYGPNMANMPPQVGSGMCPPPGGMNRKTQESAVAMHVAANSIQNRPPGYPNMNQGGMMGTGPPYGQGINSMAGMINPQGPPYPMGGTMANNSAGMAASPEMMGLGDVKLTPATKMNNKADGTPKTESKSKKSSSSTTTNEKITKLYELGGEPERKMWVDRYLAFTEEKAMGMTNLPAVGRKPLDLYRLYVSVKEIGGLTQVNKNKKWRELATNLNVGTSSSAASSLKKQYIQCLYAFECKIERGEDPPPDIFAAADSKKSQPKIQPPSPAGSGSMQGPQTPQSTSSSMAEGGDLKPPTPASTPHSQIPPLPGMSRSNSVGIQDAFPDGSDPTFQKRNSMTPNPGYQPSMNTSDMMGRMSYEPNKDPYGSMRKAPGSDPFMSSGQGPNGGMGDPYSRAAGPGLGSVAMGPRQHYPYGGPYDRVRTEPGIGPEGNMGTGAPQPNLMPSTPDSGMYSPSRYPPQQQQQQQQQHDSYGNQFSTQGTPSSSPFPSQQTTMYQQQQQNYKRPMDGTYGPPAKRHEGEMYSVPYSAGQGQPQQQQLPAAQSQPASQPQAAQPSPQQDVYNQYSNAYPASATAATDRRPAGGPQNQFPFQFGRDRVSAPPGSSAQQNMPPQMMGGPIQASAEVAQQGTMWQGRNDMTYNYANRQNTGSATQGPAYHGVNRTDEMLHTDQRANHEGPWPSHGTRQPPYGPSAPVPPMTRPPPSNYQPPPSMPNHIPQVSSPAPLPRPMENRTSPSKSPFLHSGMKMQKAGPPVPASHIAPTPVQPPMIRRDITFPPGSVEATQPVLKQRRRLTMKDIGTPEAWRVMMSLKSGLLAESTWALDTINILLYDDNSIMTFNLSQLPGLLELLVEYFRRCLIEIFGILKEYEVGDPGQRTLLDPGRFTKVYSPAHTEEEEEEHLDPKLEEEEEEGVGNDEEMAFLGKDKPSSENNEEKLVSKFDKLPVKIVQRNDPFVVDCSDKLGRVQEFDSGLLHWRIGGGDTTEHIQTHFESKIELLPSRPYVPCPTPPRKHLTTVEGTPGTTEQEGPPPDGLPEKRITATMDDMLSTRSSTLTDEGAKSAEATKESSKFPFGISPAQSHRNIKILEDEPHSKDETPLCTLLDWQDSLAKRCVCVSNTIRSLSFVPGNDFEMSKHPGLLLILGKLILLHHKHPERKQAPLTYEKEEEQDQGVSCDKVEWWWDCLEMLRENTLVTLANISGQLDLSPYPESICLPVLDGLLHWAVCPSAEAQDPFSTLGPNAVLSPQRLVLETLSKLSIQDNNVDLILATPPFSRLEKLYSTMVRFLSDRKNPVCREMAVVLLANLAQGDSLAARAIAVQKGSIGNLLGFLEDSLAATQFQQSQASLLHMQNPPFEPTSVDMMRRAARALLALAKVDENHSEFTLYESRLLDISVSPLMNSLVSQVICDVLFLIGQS
UniProt O54941: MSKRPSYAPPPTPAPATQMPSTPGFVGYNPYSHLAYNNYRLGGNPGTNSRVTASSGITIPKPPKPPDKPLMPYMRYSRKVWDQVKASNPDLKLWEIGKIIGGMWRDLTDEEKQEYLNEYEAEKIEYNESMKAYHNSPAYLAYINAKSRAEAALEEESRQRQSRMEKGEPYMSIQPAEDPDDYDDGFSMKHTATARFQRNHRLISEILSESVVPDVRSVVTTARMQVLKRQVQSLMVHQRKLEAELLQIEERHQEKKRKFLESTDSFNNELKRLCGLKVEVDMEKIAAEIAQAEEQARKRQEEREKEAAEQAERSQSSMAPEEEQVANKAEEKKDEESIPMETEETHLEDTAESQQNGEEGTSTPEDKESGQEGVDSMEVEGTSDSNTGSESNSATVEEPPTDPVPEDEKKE
UniProt Q91YE5: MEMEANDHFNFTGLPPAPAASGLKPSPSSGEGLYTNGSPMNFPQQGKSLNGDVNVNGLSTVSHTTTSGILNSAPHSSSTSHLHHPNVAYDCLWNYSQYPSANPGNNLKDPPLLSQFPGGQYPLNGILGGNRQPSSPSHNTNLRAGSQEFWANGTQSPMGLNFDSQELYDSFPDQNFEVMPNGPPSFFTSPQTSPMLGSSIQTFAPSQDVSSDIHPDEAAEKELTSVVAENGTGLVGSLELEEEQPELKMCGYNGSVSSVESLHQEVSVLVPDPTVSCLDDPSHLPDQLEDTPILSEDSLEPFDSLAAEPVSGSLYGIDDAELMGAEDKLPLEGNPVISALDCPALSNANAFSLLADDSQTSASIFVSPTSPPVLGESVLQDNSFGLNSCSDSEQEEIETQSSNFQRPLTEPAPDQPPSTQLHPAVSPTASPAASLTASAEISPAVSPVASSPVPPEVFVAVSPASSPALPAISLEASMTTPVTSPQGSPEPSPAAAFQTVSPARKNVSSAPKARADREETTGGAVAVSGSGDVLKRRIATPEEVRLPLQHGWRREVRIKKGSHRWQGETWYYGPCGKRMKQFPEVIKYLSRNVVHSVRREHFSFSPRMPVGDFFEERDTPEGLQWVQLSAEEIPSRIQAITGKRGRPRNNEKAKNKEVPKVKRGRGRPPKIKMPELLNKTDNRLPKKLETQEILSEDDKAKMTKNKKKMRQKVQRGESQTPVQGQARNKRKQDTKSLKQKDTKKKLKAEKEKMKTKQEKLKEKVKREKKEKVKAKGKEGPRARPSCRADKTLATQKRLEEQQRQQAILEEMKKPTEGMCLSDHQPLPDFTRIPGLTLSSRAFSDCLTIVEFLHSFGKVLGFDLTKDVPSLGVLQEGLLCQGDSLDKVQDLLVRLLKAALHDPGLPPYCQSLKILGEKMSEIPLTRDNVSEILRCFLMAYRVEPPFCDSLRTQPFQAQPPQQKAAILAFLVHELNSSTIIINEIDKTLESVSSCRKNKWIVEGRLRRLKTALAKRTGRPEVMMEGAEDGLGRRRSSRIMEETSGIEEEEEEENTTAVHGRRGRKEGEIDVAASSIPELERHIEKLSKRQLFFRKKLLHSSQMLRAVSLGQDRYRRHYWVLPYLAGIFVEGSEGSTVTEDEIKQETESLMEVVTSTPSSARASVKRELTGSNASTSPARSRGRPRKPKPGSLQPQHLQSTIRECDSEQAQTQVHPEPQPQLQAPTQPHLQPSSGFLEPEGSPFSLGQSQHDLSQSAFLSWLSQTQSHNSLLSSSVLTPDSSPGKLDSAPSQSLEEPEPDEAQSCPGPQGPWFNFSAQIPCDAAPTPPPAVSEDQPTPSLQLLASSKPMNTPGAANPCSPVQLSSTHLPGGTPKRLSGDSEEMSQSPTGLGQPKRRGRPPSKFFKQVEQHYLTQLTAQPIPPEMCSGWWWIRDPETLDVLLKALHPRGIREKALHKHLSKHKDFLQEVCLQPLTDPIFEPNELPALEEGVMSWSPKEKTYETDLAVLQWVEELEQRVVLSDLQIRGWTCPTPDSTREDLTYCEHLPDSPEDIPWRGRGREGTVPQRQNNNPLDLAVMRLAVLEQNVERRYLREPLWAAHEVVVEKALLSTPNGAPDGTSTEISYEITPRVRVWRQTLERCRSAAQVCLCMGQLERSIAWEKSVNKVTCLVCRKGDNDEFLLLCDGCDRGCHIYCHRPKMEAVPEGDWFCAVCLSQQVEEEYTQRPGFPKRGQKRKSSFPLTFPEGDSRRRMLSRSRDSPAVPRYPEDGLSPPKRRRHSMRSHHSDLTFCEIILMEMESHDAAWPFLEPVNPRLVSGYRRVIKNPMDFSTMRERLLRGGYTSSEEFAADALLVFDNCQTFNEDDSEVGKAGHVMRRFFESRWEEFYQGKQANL
UniProt Q61103: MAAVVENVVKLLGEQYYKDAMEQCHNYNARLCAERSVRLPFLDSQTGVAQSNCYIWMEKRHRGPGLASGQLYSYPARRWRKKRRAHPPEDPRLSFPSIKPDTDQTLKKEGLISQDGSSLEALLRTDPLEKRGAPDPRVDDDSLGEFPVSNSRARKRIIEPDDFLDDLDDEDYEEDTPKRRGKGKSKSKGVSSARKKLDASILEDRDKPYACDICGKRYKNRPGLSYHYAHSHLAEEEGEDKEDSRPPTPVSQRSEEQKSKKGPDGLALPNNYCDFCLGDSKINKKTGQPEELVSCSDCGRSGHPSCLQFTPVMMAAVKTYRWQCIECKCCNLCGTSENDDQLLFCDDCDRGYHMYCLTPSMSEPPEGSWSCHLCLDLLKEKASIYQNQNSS

Biological target: Smarca5 with endogenous GFP-3XFLAG tag (mouse) (UniProt Q91ZW3)
Assay: affinity purification with mass spectrometry; benzonase-treated nuclear lysate of mouse ES cells on magnetic anti-FLAG M2 beads, 2 h at 4 °C; washes with 200 mM KCl, 0.25% Triton, 0.25% NP-40, 0.1% Na-deoxycholate buffer; three samples with flag-tagged Smarca5 against three with untagged WT Smarca5 as control; on-bead digest; the same samples measured by a conventional workflow (PepMap 50 cm, m/z 1, MS Amanda 2.0) and the advanced workflow (µPAC 110 cm, m/z 4 WWA, CHIMERYS); limma test

binding, binds:
Arid1a (BAF250a) (from UniProt A2BH40 1-2283)
Smarce1 (from UniProt O54941 1-411)
Baz2b (from UniProt A2AUY4 1-2123)
Baz2a (from UniProt Q91YE5 1-1889)
Cecr2 (from UniProt E9Q2Z1 1-1453)
Dpf2 (from UniProt Q61103 1-391)

Biological target: Smarca5 with endogenous GFP-3XFLAG tag (mouse) (UniProt Q91ZW3)
Assay: as above
Remark: another data set of the same source

binding, binds:
B1
B2
B3
B4
